Consider five molecules from patent US20220356245A1.

The chains behind the UniProt entries cited, without tags or fusion partners. Residues count along the entry.
UniProt Q61735, residues 19-303: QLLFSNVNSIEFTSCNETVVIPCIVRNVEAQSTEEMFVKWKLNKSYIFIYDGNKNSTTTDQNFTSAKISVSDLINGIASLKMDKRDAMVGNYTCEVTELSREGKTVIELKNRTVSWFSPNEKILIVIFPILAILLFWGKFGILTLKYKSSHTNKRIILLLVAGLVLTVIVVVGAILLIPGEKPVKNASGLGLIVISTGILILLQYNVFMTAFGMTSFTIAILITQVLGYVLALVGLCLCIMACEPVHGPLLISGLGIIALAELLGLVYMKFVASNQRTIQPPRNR

Assay [1] addresses cynomolgus monkey CD47 expressed on CHO cells (cynomolgus monkey). The assay can be described thus: flow cytometry, CD47-transfected CHO cells. (In general: A flow cytometer gives signals particle by particle.)
Assay [2] shares this target. Put plainly: summary of in vitro characterization.
Assay [3] concerns the target mouse CD47 (mCD47) expressed on CHO cells (mouse) (UniProt Q61735). The assay can be described thus: flow cytometry, CD47-transfected CHO cells.
Assay [4] has the same target. Put plainly: summary of in vitro characterization.

These are yes or no findings as the source states them, for the method shown. Some entries that bind do so weakly or less than the wild type.

B1: Candidate 7 (VT008-AL5-10G7-10K7), mouse IgG (antibody, V domains shown)
VH: QVQLQQPGAELVMPGSSVKLSCKTSGYTFTKYWMHWVKRRPGQGLEWIGEINPSDTYTNYNQKFKGKSTLTVDKSSSTAYMQLSSLTSEDSAVYFCARVATMVARGFAYWGQGTLVTVSA
VL: DIVMTQSHKFMSTSVGDRVSITCKASQDVSGAVVWYQEKPGQSPNLLIYLATYRYTGVPDRFTGSGSGTDFTLTIRSVQAEDMAVYYCQQYYSIPWTFGGGTKLEIK
On to B1, for which the binding result in assay [1] and in assay [2] was “binds” throughout.

B2: Candidate 22 (VL008-AL13-8G5-8K3), mouse IgG (antibody, V domains shown)
VH: QVQLQQPGAELVKPGASVKLSCKASGYTFTTYWMHWVKQRPGQGLEWIGMIHPNSGTTNYNEKFKSKATLTVDKSSSSTYMQLSSLTSEDSAVYYCTRSHYYDGHFSYWGQGTLVTVSA
VL: DIVMSQSPSSLAVSAGEKVTMSCKSSQSLLNSRTRKNYLAWYQQKPGQSPKLLIYWASTRESGVPDRFTGSGSGTDFTLTISSVQAEDLAVYYCKQSYNLWTFGGGTRLEIK
Consider B2, for which the binding entry in assay [1] and in assay [2] was “binds” throughout.

B3: Candidate 15 (VT008-AL6-18G1-18K21), mouse IgG (antibody, V domains shown)
VH: QVQLQQPGAELVKPGTSVKLSCKASGYTFINYWIHWVKQRPGRGLEWIGRIDPNTVDAKYNEKFKSKATLTVDKPSSIAYMQLSSLTSEDSAVYYCSRGGYTMDYWGQGTSVTVSS
VL: DVVMTQTPLSLPVSLGDQASISCRSSQSLVHSNGNTYLHWYLQKPGQSPTLLIYKVSNRFSGVPDRFSGSGSGTDFTLKISRVEAEDLGIYFCFQSTHVPWTFGGGTKLEIK
With B3, the binding entry in assay [3], in assay [1], in assay [4] and in assay [2] was “binds” throughout.

B4: Candidate 26 (VT008-AL6-10G3-10K1), mouse IgG (antibody, V domains shown)
VH: QVQLQQPGPELVKPGASVKLSCKASGYTFTNYWIHWLNQRPGRGLEWIGRIDPNSGGTKYNEKFKSKAILTVDKSSSTTYMQLSSLTSEDSAVYYCARGGYTMDYWGQGTSVTVSS
VL: DVVMPQTPLSLPVSLGDHASISCRSSQSLLHSNGNTYLHWYLQKPGQSPKLLIYKVSYRFSGVPDRISGSGSGTDFTLKISRVEAEDLGVYFCFQSTHVPWTFGGGTKLEIK
Turning to B4, the binding result in assay [3], in assay [1], in assay [4] and in assay [2] was “binds” throughout.

B5: Candidate 29 (VT008-AL6-20G7-20K7), mouse IgG (antibody, V domains shown)
VH: QVQLQQSGTELAKPGASVKLSCKASGYTFINYWIYWVKERPGQVLEWIGYINPRSDDTKYNQKFRDRATLTADKSSTTAYLQLNSLTNDDSALYYCARGGFTMDFWGQGTSVTVSS
VL: DVVMTQTPLSLPVSLGDQASISCRSSQSLLHSNGNTYLHWYLQKPGQSPNLLIYKVSYRFSGVPDRFSGSGSGTDFTLKISRVEAEDLGVYFCSQGTHVPYTFGGGTKLEIK
With B5, the binding result in assay [3] and in assay [1] was “binds” throughout.
